No constants are given. Whether binding was seen depends on the method and setting. Binding seen in cells or lysates may run through a third protein. Some binding calls cover weakened binding; strength is not graded here. For some assays here: Where a sequence is shown, tags or fusion partners need not be part of it.

Chains of the proteins cited; added tags and fusions are not shown.
UniProt P42003: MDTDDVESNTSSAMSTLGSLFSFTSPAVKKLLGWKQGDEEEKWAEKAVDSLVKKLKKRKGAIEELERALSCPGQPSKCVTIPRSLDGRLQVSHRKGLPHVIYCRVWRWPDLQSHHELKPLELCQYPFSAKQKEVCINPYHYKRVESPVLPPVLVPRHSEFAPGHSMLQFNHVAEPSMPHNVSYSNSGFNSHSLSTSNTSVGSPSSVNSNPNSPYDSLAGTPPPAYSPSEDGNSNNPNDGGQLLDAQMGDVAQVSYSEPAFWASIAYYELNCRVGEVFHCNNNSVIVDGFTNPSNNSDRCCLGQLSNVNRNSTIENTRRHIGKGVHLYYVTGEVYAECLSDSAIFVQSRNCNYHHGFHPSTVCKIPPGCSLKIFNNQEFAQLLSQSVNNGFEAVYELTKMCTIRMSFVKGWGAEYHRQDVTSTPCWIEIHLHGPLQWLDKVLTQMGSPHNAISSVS

The target in test [1] is T1, GST-EcR (Ecdysone receptor) (Drosophila) (UniProt P34021).
T1 sequence: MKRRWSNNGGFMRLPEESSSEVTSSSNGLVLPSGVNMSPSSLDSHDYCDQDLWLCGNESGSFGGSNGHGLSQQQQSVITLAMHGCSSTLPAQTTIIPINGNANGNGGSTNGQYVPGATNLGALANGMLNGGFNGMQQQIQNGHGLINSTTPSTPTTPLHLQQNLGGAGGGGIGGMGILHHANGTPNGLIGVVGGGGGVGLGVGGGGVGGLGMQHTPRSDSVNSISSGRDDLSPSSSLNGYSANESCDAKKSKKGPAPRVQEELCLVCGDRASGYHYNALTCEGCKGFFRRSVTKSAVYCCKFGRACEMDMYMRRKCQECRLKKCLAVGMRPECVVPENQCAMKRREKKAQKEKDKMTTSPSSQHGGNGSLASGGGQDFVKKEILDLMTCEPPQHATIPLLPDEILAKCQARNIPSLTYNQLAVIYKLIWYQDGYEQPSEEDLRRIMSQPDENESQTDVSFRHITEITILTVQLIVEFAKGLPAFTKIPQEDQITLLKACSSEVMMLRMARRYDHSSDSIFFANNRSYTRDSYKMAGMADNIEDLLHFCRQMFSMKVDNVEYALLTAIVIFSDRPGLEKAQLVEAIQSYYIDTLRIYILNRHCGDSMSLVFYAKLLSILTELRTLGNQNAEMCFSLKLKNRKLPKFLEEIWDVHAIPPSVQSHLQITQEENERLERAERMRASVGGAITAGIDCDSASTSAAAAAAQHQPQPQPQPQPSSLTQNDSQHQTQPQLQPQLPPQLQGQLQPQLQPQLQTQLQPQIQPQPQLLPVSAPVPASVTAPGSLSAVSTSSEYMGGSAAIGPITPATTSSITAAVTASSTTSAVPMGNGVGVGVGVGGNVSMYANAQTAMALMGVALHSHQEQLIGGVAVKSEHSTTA
Kind of test: pull-down.

The target in test [2] is T2, GST-Usp (Ultraspiracle) (Drosophila) (UniProt P20153).
T2 sequence: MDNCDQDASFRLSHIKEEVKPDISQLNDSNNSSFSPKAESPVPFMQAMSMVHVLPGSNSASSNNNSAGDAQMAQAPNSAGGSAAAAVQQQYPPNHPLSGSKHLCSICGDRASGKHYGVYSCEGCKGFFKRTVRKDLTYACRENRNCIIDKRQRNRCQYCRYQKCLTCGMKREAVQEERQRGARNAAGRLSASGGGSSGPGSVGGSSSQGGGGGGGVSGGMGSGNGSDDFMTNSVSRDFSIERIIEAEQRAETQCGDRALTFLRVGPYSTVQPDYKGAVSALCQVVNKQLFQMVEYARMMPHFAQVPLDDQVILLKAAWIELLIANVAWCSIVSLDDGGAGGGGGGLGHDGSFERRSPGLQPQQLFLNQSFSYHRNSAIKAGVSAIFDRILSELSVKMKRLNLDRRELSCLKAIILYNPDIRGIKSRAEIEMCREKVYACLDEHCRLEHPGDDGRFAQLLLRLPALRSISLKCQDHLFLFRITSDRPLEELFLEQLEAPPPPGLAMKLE
Kind of test: pull-down.

For test [3], the target named is T3, Jun, endogenous in embryos (Drosophila (endogenous in embryos)) (UniProt P18289).
T3 sequence: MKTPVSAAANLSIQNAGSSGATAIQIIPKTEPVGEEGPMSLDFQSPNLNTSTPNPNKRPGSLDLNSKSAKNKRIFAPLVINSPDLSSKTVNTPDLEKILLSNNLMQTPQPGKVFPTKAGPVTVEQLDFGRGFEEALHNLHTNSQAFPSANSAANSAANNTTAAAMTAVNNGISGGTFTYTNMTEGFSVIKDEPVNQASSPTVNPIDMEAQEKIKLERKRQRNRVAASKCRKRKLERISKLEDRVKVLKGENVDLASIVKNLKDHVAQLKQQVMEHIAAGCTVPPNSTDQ
Kind of test: proximity ligation.

The target in test [4] is pMad, endogenous in embryos (Drosophila (endogenous in embryos)) (UniProt P42003). Kind of test: proximity ligation.
The target of another test is GST-Jun (Drosophila) (UniProt P18289). Kind of test: pull-down.

With His-Jun (from UniProt P18289 1-289), the binding result in test [1] and in test [2] was “binds” in each case.

B1: Ecdysone receptor (EcR), endogenous in embryos (receptor, UniProt P34021 1-878)
chain: MKRRWSNNGGFMRLPEESSSEVTSSSNGLVLPSGVNMSPSSLDSHDYCDQDLWLCGNESGSFGGSNGHGLSQQQQSVITLAMHGCSSTLPAQTTIIPINGNANGNGGSTNGQYVPGATNLGALANGMLNGGFNGMQQQIQNGHGLINSTTPSTPTTPLHLQQNLGGAGGGGIGGMGILHHANGTPNGLIGVVGGGGGVGLGVGGGGVGGLGMQHTPRSDSVNSISSGRDDLSPSSSLNGYSANESCDAKKSKKGPAPRVQEELCLVCGDRASGYHYNALTCEGCKGFFRRSVTKSAVYCCKFGRACEMDMYMRRKCQECRLKKCLAVGMRPECVVPENQCAMKRREKKAQKEKDKMTTSPSSQHGGNGSLASGGGQDFVKKEILDLMTCEPPQHATIPLLPDEILAKCQARNIPSLTYNQLAVIYKLIWYQDGYEQPSEEDLRRIMSQPDENESQTDVSFRHITEITILTVQLIVEFAKGLPAFTKIPQEDQITLLKACSSEVMMLRMARRYDHSSDSIFFANNRSYTRDSYKMAGMADNIEDLLHFCRQMFSMKVDNVEYALLTAIVIFSDRPGLEKAQLVEAIQSYYIDTLRIYILNRHCGDSMSLVFYAKLLSILTELRTLGNQNAEMCFSLKLKNRKLPKFLEEIWDVHAIPPSVQSHLQITQEENERLERAERMRASVGGAITAGIDCDSASTSAAAAAAQHQPQPQPQPQPSSLTQNDSQHQTQPQLQPQLPPQLQGQLQPQLQPQLQTQLQPQIQPQPQLLPVSAPVPASVTAPGSLSAVSTSSEYMGGSAAIGPITPATTSSITAAVTASSTTSAVPMGNGVGVGVGVGGNVSMYANAQTAMALMGVALHSHQEQLIGGVAVKSEHSTTA
B1: the binding entry in test [3] was “binds”; in test [4] it was “no binding”.

B2: His-EcR (Ecdysone receptor) (receptor, UniProt P34021 1-878)
chain: MKRRWSNNGGFMRLPEESSSEVTSSSNGLVLPSGVNMSPSSLDSHDYCDQDLWLCGNESGSFGGSNGHGLSQQQQSVITLAMHGCSSTLPAQTTIIPINGNANGNGGSTNGQYVPGATNLGALANGMLNGGFNGMQQQIQNGHGLINSTTPSTPTTPLHLQQNLGGAGGGGIGGMGILHHANGTPNGLIGVVGGGGGVGLGVGGGGVGGLGMQHTPRSDSVNSISSGRDDLSPSSSLNGYSANESCDAKKSKKGPAPRVQEELCLVCGDRASGYHYNALTCEGCKGFFRRSVTKSAVYCCKFGRACEMDMYMRRKCQECRLKKCLAVGMRPECVVPENQCAMKRREKKAQKEKDKMTTSPSSQHGGNGSLASGGGQDFVKKEILDLMTCEPPQHATIPLLPDEILAKCQARNIPSLTYNQLAVIYKLIWYQDGYEQPSEEDLRRIMSQPDENESQTDVSFRHITEITILTVQLIVEFAKGLPAFTKIPQEDQITLLKACSSEVMMLRMARRYDHSSDSIFFANNRSYTRDSYKMAGMADNIEDLLHFCRQMFSMKVDNVEYALLTAIVIFSDRPGLEKAQLVEAIQSYYIDTLRIYILNRHCGDSMSLVFYAKLLSILTELRTLGNQNAEMCFSLKLKNRKLPKFLEEIWDVHAIPPSVQSHLQITQEENERLERAERMRASVGGAITAGIDCDSASTSAAAAAAQHQPQPQPQPQPSSLTQNDSQHQTQPQLQPQLPPQLQGQLQPQLQPQLQTQLQPQIQPQPQLLPVSAPVPASVTAPGSLSAVSTSSEYMGGSAAIGPITPATTSSITAAVTASSTTSAVPMGNGVGVGVGVGGNVSMYANAQTAMALMGVALHSHQEQLIGGVAVKSEHSTTA
Turning to B2, in the test with GST-Jun (Drosophila), the binding entry is on record as “binds”.

The record behind these values is publication doi:10.1101/2021.01.14.426760.
